# Source: PubChem BioAssay AID1508597 (Cure First, 2020)
# Test: 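Knock-downs altering ovarian cancer cell survival with or without PARP inhibitor rucaparib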 (primary screen)
# System: human ovarian carcinoma lines grown from tumours: OCI-P5x (papillary serous) and OCI-C5x (clear cell)
# Knock-down reagent: siRNA pool against human genes, 1.25 pmol siRNA per well
# Time to read-out: 72 h or 96 h, depending on the cell culture
# Challenge: rucaparib 20 µM (about IC30) or vehicle, present until read-out
# Rucaparib or vehicle: Vehicle
# Cell line: OCI-C5x (clear cell)
# Measured: 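Luminescent ATP-based viability assay read 72 or 96 h after transfection, depending on culture, given as normalised percent viability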
# Scale: viability, normalised: higher = more viable cells remaining
# Rule for the call: 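Active when normalised viability falls below 80 percent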
# Meaning of the calls: active = viability under 80%; inactive = viability 80% or more
# This is an unselected part of the about 2,100 reagents, in one setting of the screen. 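Calls flag viability under 80% in either arm, not effects specific to rucaparib; the reference for percent is not stated.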 A number with no mark means an inactive call. Some reagents were tested in more than one well and are listed for each. Not given: the 100% reference.
gene,technical replicate,"viability, normalised (%)"
TDRD12,1,64.9 (active)
TDRD12,2,48.2 (active)
TDRD12,3,60.2 (active)
RAD21,1,48.8 (active)
RAD21,1,51.8 (active)
RAD21,2,47.5 (active)
RAD21,2,51.1 (active)
RAD21,3,52.1 (active)
RAD21,3,37.5 (active)
CRADD,1,85
CRADD,2,73.7 (active)
CRADD,3,82.4
EXO1,1,58.4 (active)
EXO1,2,58.2 (active)
EXO1,3,47.6 (active)
DPH7,1,55.3 (active)
DPH7,2,68.7 (active)
DPH7,3,57.8 (active)
EPB41L5,1,52.3 (active)
EPB41L5,2,57.4 (active)
EPB41L5,3,64.3 (active)
HPS1,1,57.5 (active)
HPS1,2,62.5 (active)
HPS1,3,85.5
TRIM68,1,48 (active)
TRIM68,2,44.2 (active)
TRIM68,3,59 (active)
EP400,1,48.4 (active)
EP400,2,59.7 (active)
EP400,3,51.8 (active)
TEX14,1,59.9 (active)
TEX14,2,46.3 (active)
TEX14,3,56.9 (active)
HJURP,1,54.3 (active)
HJURP,2,47.6 (active)
HJURP,3,58.7 (active)
DRD1,1,53.8 (active)
DRD1,2,57.1 (active)
DRD1,3,48 (active)
FLT4,1,52.6 (active)
FLT4,1,41.4 (active)
FLT4,2,56.9 (active)
FLT4,2,52.6 (active)
FLT4,3,54.2 (active)
FLT4,3,52 (active)
DYRK1A,1,70.3 (active)
DYRK1A,2,50 (active)
DYRK1A,3,56.9 (active)
IRAK2,1,81.4
IRAK2,2,70.3 (active)
IRAK2,3,66.8 (active)
MORF4L2,1,57.1 (active)
MORF4L2,2,58.4 (active)
MORF4L2,3,78.5 (active)
GLYR1,1,48.4 (active)
GLYR1,2,70.6 (active)
GLYR1,3,54 (active)

Already shown: an excerpt of the list.
gene,technical replicate,"viability, normalised (%)"
RAD21,2,47.5 (active)
RAD21,2,51.1 (active)
RAD21,3,52.1 (active)
RAD21,3,37.5 (active)
CRADD,1,85
CRADD,2,73.7 (active)
